Results as given in publication PMC6104189.
Results are given in words; binding and its absence hold for the method and conditions named. In cells and extracts the contact can be indirect. Some entries that bind do so weakly or less than the wild type.

The chains behind the UniProt entries cited, without tags or fusion partners.
UniProt P09874: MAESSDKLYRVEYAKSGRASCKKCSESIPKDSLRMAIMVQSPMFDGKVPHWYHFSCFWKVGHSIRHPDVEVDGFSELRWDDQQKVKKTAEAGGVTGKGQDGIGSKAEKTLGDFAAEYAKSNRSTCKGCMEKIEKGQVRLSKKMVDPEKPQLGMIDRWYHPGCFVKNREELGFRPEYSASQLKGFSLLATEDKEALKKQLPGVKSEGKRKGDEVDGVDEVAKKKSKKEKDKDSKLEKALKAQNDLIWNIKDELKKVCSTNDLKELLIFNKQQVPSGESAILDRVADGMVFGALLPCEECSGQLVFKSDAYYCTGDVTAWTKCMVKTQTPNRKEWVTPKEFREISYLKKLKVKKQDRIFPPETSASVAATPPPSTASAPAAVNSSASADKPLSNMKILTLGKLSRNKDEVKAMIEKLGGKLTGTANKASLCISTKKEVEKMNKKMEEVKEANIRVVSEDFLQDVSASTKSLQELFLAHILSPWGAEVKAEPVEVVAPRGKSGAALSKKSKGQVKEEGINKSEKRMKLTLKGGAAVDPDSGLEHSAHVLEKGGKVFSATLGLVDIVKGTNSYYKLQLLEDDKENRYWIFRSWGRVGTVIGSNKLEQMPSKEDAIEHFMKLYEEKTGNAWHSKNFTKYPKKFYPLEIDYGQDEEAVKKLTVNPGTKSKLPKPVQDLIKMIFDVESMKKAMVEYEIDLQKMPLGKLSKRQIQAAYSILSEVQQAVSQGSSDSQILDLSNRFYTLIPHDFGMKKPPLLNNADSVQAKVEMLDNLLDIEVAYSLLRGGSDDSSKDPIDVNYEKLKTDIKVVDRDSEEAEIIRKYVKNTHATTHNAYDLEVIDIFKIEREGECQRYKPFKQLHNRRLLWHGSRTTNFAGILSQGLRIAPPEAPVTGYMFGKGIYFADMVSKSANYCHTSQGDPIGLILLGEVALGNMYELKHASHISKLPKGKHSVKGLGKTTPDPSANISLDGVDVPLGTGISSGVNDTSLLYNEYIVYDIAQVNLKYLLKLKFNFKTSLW
UniProt P28482: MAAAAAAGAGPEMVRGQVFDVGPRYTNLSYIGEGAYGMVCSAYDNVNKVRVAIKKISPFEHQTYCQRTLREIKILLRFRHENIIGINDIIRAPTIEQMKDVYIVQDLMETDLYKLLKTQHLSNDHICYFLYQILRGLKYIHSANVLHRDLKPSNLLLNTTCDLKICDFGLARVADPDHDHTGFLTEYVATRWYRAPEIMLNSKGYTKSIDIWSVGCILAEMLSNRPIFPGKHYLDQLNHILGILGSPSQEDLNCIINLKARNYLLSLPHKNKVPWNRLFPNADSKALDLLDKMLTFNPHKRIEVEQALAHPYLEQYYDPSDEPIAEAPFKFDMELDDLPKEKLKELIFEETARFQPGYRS

Target: Poly-(ADP-ribose) transferase/polymerase-1 (human (endogenous in HAECs)) (UniProt P09874)
Assay: co-IP; HAECs (with or without oxLDL) harvested in lysis buffer; immunoprecipitation with anti-PARP1 antibody at 4°C overnight, protein A/G beads 4 h, washed five times with PBS; immunoblot with anti-phosphorylated ERK1/2 antibodies

binding: binds
Substance: phosphorylated ERK2 (from UniProt P28482 1-360) (enzyme)
